Data: PMC8310357
No constants are given. Whether binding was seen depends on the method and setting. Binding calls can cover weak binding; strength is not graded here.

Biological target: Erylysin A (Pleurotus eryngii) (UniProt D0FZZ2)
Assay: cryo-electron microscopy imaging of proteins on vesicles (no reconstruction); LUVs 0.5 mg/mL of CPE/POPC/cholesterol 5/47.5/47.5 (mol/mol/mol) in vesicle buffer (20 mM Tris, pH 7.5, 140 mM NaCl, 1 mM EDTA); vesicles incubated with the aegerolysin 30 min at room temperature, then PlyB added for 30 min; OlyA6 3.64 uM with PlyB 1.67 uM, or EryA 25 uM with PlyB 2 uM; oligomerisation required the presence of membranes; both purified

B1: Δ48PlyB (pleurotolysin B) (protein, UniProt Q5W9E8 49-523)
chain: SQAGDTLNDVIQDPTRRNKLINDNNLLKGIIMGRDGPVPSSRELIVRPDTLRAIINNRATIETTTMEAEFTETLMESNYNSASVKVSAPFITANSEYSESSSFKNTETEKSMYTSSRYLFPQGRIDFTTPDSGFDDVIKLSPQFTSGVQAALAKATGTEKREALQNLFQEYGHVFRTKVHIGGVLSAHTMETFSRSENETEVKQDVKAGLEGAVKGWGGGATAGHGNTQGTITTSQNRKLNVKYIVNGGDYTKIQNTEEWVASTNQSEHWRVIEVTEVTAVADLLPQPIRGQVKDLLKPLLGKWVDVEKVPGLESLPVSVYRPKGAIPAGWFWLGDTADASKALLVKPTLPARSGRNPALTSLHQGSGMTEQPFVDLPQYQYLSTYFGSFAHDTPPGSTLRGLRPDHVLPGRYEMHGDTISTAVYVTRPVDVPFPEDECFDLKSLVRVKLPGSGNPPKPRSALKKSMVLFDSGEK
**Q.** B1 was tested. Which binding did it give?
**A.** binds
